Results on four molecules are retold here after patent US20170233490A1.

Sequences of proteins named here, by UniProt entry; tags and fusion partners are left off. A change or cut given only in a name is not applied to a line headed by its entry.
UniProt P21860: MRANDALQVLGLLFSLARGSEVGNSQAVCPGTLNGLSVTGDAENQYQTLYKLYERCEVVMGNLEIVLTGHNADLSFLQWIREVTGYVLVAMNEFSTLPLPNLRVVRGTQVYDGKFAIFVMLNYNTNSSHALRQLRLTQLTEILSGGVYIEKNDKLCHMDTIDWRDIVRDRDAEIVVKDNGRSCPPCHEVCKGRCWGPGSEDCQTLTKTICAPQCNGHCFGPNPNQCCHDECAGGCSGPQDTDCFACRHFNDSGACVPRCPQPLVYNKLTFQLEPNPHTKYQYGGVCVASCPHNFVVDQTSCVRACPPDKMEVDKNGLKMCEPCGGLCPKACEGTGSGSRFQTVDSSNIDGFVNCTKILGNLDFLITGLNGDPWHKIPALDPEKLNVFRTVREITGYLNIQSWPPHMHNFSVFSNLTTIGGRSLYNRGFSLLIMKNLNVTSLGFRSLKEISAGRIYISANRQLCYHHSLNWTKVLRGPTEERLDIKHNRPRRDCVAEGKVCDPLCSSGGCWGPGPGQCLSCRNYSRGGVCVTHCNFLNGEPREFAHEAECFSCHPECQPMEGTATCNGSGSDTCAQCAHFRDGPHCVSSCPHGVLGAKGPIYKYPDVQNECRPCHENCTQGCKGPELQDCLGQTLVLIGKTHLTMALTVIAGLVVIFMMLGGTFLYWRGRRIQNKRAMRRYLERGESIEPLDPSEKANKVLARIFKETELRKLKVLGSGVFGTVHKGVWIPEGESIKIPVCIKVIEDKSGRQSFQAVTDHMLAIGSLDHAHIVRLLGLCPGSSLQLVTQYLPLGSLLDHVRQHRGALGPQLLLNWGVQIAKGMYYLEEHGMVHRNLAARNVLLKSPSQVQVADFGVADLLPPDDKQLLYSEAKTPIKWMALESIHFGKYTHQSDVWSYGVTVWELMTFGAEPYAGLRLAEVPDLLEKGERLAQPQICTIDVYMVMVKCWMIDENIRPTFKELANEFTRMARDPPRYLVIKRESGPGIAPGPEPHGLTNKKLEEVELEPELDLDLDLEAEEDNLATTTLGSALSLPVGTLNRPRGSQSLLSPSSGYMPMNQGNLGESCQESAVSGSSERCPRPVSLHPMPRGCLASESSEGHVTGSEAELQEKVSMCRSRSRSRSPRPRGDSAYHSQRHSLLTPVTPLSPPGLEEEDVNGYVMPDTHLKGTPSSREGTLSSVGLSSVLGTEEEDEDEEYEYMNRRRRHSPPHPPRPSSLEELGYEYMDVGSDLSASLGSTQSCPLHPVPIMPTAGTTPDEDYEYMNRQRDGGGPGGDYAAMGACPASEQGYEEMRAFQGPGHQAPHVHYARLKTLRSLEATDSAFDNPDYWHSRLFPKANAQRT

These are yes or no findings as the source states them, for the method shown. Some binding calls cover weakened binding; strength is not graded here.

Test [1] addresses HER3 ECD-HRG complex (human) (UniProt P21860). Briefly: SPR (Biacore B3000, 25 °C), antibody captured by anti-human Fc antibody; HER3-ECD/HRG1β complex (ECD3/HRG) in a 1:3 series up to 270 nM, 5 min injection, 10 min dissociation. On the technique in general: Surface plasmon resonance follows binding to a sensor surface in real time, without labels.
For test [2], the target named is T1, TtSlyD-FKBP-Her3.
T1 sequence: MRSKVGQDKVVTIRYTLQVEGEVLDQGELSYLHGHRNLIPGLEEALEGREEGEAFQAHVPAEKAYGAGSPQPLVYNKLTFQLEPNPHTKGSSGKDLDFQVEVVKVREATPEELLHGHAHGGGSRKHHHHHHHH
Put plainly: SPR kinetic screening.

For test [3], the target named is HER3 ECD-HRG complex (human) (UniProt P21860). Briefly: ribosome display panning of scFv on biotinylated, heregulin-activated Her3-ECD (100 nM).

B1: DIB-MoAb (monovalent antibody based on M-05-74) (antibody, V domains shown)
VH: QVQLQQSGAELAKPGASVKMSCKTSGYTLTDYWIHWVKQRPGQGLEWIGYINPYTGYTESNQKFKDKATLTADKSSNTAYIQLSSLTSEDSAVYYCARPYYYGDYWGQGTTLTVSS
VL: QIVLTQSPAIMSASPGERVTITCSASSSVSYMHWFQQKPGTSPKLLIYSTSNLASGVPARFSGSGSGTSYSLTISRMEAEDAATYYCQQRSSYPFTFGSGTKLEIK
As for B1, the binding result in test [1] was “binds”.

B2: anti-HER3/HER4 antibody M-05-74 (antibody, V domains shown)
VH: QVQLQQSGAELAKPGASVKMSCKTSGYTLTDYWIHWVKQRPGQGLEWIGYINPYTGYTESNQKFKDKATLTADKSSNTAYIQLSSLTSEDSAVYYCARPYYYGDYWGQGTTLTVSS
VL: QIVLTQSPAIMSASPGERVTITCSASSSVSYMHWFQQKPGTSPKLLIYSTSNLASGVPARFSGSGSGTSYSLTISRMEAEDAATYYCQQRSSYPFTFGSGTKLEIK
Take B2: the binding result in test [2] is “binds”.

B3: scFv ribosome display construct VH-A/VL-B of humanized M-05-74 (scFv, V domains shown)
VH: QVQLVQSGAELKKPGASVKVSCRTSGYTLTDYWIHWVRQAPGQGLEWMGYINPYTGYTESNQKFKDRVAMTRDASINTAYMELTSLRSDDTAVYYCARPYYYGDYWGQGTLVTVSS
VL: EIVLTQSPSSLSASVGDRVTITCSASSSVSYMHWYQQKPGKAPKLLIYSTSNLASGVPSRFSGSGSGTDFTLTISSLQPEDFATYYCQQRSSYPFTFGGGTKVDIK
B3: in test [3], the binding entry is on record as “binds”.

B4: scFv ribosome display construct VH-A/VL-E of humanized M-05-74 (scFv, V domains shown)
VH: QVQLVQSGAELKKPGASVKVSCRTSGYTLTDYWIHWVRQAPGQGLEWMGYINPYTGYTESNQKFKDRVAMTRDASINTAYMELTSLRSDDTAVYYCARPYYYGDYWGQGTLVTVSS
VL: EIVMTQSPSSLSASVGDRVTITCSASSSVSYMHWYQQKPGKAPKLLIYSTSNLASGVPSRFSGSGSGTDYTLTISSLQPEDFATYYCQQRSSYPFTFGQGTKLEIK
On to B4, for which, in test [3], the binding entry is “binds”.
